Data as given in PubChem BioAssay AID1259273 (Sanger Institute, 2017).
Purpose: 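Find kinase knock-downs that boost killing of colorectal cancer cells by anchor drugs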 (follow-up of hits). System: human NCI-H630 colorectal cancer cells. Reagents: single siRNA against human genes. Challenge: anchor drugs BYL719 at 1 µM, cetuximab at 5 µg/ml or trametinib at 10 nM, or DMSO vehicle alone. Measurement: 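Replicate-averaged viability scaled to non-targeting control pool wells, plus per-drug synergy scores comparing knock-down with drug to knock-down only and drug only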. Reading the numbers: synergy score with trametinib and synergy score with BYL719 and synergy score with cetuximab: higher = stronger synergy, more synthetic lethal. Call rule: 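a duplex counts as synthetic lethal if its averaged synergy score exceeds 0.10 with BYL719, cetuximab or trametinib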.
The whole screen tested 160 reagents; shown is a part drawn at random. 36 of all reagents (22%) count as active. 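Four distinct siRNA duplexes per gene; each call applies to one duplex and is not gene-level validation across cell lines.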 The numbers tell different reagents against one gene apart. Not all columns of the deposit are shown. Not stated in the record: the amount of reagent, the time to read-out.

CSNK2A2 (casein kinase 2 alpha 2) #1 | synergy score with trametinib: -0.0861; synergy score with BYL719: -0.146; synergy score with cetuximab: -0.0739; Call: inactive
CSNK2A2 (casein kinase 2 alpha 2) #2 | synergy score with trametinib: 0.0374; synergy score with BYL719: 0.0776; synergy score with cetuximab: -0.147; Call: inactive
CSNK2A2 (casein kinase 2 alpha 2) #3 | synergy score with trametinib: -0.00847; synergy score with BYL719: -0.0502; synergy score with cetuximab: -0.126; Call: inactive
CSNK2A2 (casein kinase 2 alpha 2) #4 | synergy score with trametinib: 0.054; synergy score with BYL719: -0.0852; synergy score with cetuximab: 0.0123; Call: inactive

2 consecutive entries already listed, for reference:
CSNK2A2 (casein kinase 2 alpha 2) #2 | synergy score with trametinib: 0.0374; synergy score with BYL719: 0.0776; synergy score with cetuximab: -0.147; Call: inactive
CSNK2A2 (casein kinase 2 alpha 2) #3 | synergy score with trametinib: -0.00847; synergy score with BYL719: -0.0502; synergy score with cetuximab: -0.126; Call: inactive

More entries follow:
PFKFB3 (6-phosphofructo-2-kinase/fructose-2,6-biphosphatase 3) #1 | synergy score with trametinib: 0.00487; synergy score with BYL719: -0.118; synergy score with cetuximab: 0.0842; Call: inactive
PFKFB3 (6-phosphofructo-2-kinase/fructose-2,6-biphosphatase 3) #2 | synergy score with trametinib: 0.0659; synergy score with BYL719: -0.137; synergy score with cetuximab: -0.00975; Call: inactive
PFKFB3 (6-phosphofructo-2-kinase/fructose-2,6-biphosphatase 3) #3 | synergy score with trametinib: -0.103; synergy score with BYL719: -0.146; synergy score with cetuximab: -0.176; Call: inactive
PFKFB3 (6-phosphofructo-2-kinase/fructose-2,6-biphosphatase 3) #4 | synergy score with trametinib: -0.0524; synergy score with BYL719: -0.125; synergy score with cetuximab: -0.067; Call: inactive
EPHA6 (EPH receptor A6) #1 | synergy score with trametinib: 0.102; synergy score with BYL719: -0.0106; synergy score with cetuximab: -0.053; Call: active
EPHA6 (EPH receptor A6) #2 | synergy score with trametinib: 0.0995; synergy score with BYL719: 0.0289; synergy score with cetuximab: -0.0649; Call: inactive
EPHA6 (EPH receptor A6) #3 | synergy score with trametinib: 0.132; synergy score with BYL719: -0.173; synergy score with cetuximab: 0.038; Call: active
EPHA6 (EPH receptor A6) #4 | synergy score with trametinib: -0.0324; synergy score with BYL719: -0.146; synergy score with cetuximab: -0.172; Call: inactive
